Paper doi:10.1101/2025.11.13.688210
Results are given in words; binding and its absence hold for the method and conditions named. For some assays here: Binding seen in cells or lysates may run through a third protein. For some assays here: Binding calls can cover weak binding; strength is not graded here. Where a sequence is shown, tags or fusion partners need not be part of it.

How the values were obtained:
[1] = biological target: T1, V5-zfVDAC2 (pcDNA3.1-V5-zfVDAC2) (zebrafish) (UniProt Q8AWD0); test: co-IP
T1 sequence: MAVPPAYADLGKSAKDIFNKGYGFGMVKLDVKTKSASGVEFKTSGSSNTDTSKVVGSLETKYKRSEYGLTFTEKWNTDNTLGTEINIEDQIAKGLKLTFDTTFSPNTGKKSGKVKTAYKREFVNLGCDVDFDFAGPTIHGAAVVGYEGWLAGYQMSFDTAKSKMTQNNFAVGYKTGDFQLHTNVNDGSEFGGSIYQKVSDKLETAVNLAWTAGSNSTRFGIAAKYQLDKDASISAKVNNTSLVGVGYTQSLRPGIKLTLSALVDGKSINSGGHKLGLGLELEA

[2] = biological target: mfVDAC2-BD (mandarin fish); test: two-hybrid

For HA-p71 (pCMV-HA-ORF71), the binding [1] was “binds”.

B1: p7-AD (protein, UniProt Q4ZD58 1-486)
chain: MLTAIDYLTKKGWKISSDPRTYDGYPKNYGYRNYHENGINYDEFCGGYHRAFDVYSNETNDVPAVTSGTVIEANDYGNFGGTFVIRDANDNDWIYGHLQRGSMRFVVGDKVNQGDIIGLQGNSNYYDNPMSVHLHLQLRPKDAKKDEKSQVCSGLAMEKYDITNLNAKQDKSKNGSVKELKHIYSNHIKGNKITAPKPSIQGVVIHNDYGSMTPSQYLPWLYARENNGTHVNGWASVYANRNEVLWYHPTDYVEWHCGNQWANANLIGFEVCESYPGRISDKLFLENEEATLKVAADVMKSYGLPVNRNTVRLHNEFFGTSCPHRSWDLHVGKGEPYTTTNINKMKDYFIKRIKHYYDGGKLEVSKAATIKQSDVKQEVKKQEAKQIVKATDWKQNKDGIWYKAEHASFTVTAPEGIITRYKGPWTGHPQAGVLQKGQTIKYDEVQKFDGHVWVSWETFEGETVYMPVRTWDAKTGKVGKLWGEIK
In the case of B1, the binding [2] is reported as “no binding”.
